# PMC9425039
# Amino acid sequences for entries named in this document (tags omitted).
# UniProt Q9JIF0: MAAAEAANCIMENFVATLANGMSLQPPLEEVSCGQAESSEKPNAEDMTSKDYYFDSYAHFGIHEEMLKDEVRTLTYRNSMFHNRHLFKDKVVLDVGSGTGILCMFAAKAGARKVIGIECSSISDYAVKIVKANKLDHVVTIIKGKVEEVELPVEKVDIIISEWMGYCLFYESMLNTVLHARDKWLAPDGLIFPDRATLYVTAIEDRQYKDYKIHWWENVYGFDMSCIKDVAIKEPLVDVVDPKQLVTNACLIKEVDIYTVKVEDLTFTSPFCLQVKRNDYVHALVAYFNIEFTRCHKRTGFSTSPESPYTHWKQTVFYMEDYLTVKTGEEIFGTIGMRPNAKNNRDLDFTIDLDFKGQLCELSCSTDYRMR
# UniProt P28033: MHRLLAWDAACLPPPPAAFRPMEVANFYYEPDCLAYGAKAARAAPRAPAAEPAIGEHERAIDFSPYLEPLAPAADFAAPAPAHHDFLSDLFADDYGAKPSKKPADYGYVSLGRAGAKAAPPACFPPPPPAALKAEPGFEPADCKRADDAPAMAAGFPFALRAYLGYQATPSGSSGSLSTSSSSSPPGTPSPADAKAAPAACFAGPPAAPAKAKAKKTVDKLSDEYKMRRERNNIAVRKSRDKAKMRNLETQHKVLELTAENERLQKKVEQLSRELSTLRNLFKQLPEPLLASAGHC
# No constants are given. Whether binding was seen depends on the method and setting. Binding seen in cells or lysates may run through a third protein. Some entries that bind do so weakly or less than the wild type.
# Key:
# [1] = target: Protein arginine methyltransferase 1 (PRMT1), Myc-tagged, from pcDNA3.1-Myc-PRMT1 (mouse) (UniProt Q9JIF0); assay: co-IP; 293T cells cotransfected with plasmids expressing PRMT1 and C/EBPβ; lysates immunoprecipitated with anti-PRMT1 or anti-C/EBPβ antibody on Dynabeads Protein G, overnight at 4 °C, four washes; Western blot
# [2] = target: Protein arginine methyltransferase 1 (PRMT1), endogenous in 3T3-L1 cells (mouse (endogenous in 3T3-L1)) (UniProt Q9JIF0); assay: co-IP; endogenous proteins; 3T3-L1 cells treated with DMI for 2 days; lysates immunoprecipitated with anti-PRMT1 or anti-C/EBPβ antibody on Dynabeads Protein G, overnight at 4 °C, four washes; Western blot
# [3] = target: CCATT enhancer-binding protein β (C/EBPβ), Flag-tagged, from the plasmid C/EBPβ-Flag (UniProt P28033); assay: co-IP; 293T cells cotransfected with plasmids expressing PRMT1 and C/EBPβ; lysates immunoprecipitated with anti-PRMT1 or anti-C/EBPβ antibody on Dynabeads Protein G, overnight at 4 °C, four washes; Western blot
# [4] = target: CCATT enhancer-binding protein β (C/EBPβ), endogenous in 3T3-L1 cells (mouse (endogenous in 3T3-L1)) (UniProt P28033); assay: co-IP; endogenous proteins; 3T3-L1 cells treated with DMI for 2 days; lysates immunoprecipitated with anti-PRMT1 or anti-C/EBPβ antibody on Dynabeads Protein G, overnight at 4 °C, four washes; Western blot
substance,measurement,setting,value
"CCATT enhancer-binding protein β (C/EBPβ), Flag-tagged, from the plasmid C/EBPβ-Flag (from UniProt P28033 1-296)",binding,[1],binds
"CCATT enhancer-binding protein β (C/EBPβ), endogenous in 3T3-L1 cells (from UniProt P28033 1-296)",binding,[2],binds
"Protein arginine methyltransferase 1 (PRMT1), Myc-tagged, from pcDNA3.1-Myc-PRMT1 (from UniProt Q9JIF0 1-371) (enzyme)",binding,[3],binds
"Protein arginine methyltransferase 1 (PRMT1), endogenous in 3T3-L1 cells (from UniProt Q9JIF0 1-371) (enzyme)",binding,[4],binds
